The text below walks through data of patent US20170189507A1, “NOVEL PEPTIDES AND COMBINATION OF PEPTIDES FOR USE IN IMMUNOTHERAPY AGAINST VARIOUS CANCERS” (immatics biotechnologies GmbH, priority 2015, published 2017).

The data set deals with HLA-A*02-positive cancer and normal tissue samples. Kind of data set: Identification and relative LC-MS quantitation of HLA-A*02-presented tumor-associated peptides on tissue samples (XPRESIDENT). The arrangement: species or system human. The conditions noted are these: HLA-A*02-binding peptides; examples named in the text for Table 13.

In the case of “1 (LLYPEPWSV; listed as Homo sapiens) [compound 1]”, the “presentation on various cancer entities” value was “glioblastoma, non-small cell lung cancer, and ovarian cancer”.
